The values below come from paper PMC11234269.

Amino acid sequences for entries named in this document (tags omitted).
UniProt Q60980: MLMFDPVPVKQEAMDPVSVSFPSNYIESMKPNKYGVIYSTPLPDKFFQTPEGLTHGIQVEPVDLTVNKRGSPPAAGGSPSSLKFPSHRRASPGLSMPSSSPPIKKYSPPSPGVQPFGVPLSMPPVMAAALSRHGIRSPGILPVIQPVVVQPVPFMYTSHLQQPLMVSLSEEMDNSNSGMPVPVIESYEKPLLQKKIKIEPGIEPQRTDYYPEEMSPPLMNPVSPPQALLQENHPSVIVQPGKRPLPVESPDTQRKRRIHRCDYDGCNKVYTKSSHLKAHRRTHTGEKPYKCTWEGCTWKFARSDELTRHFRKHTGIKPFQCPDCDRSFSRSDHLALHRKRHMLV
UniProt O89090: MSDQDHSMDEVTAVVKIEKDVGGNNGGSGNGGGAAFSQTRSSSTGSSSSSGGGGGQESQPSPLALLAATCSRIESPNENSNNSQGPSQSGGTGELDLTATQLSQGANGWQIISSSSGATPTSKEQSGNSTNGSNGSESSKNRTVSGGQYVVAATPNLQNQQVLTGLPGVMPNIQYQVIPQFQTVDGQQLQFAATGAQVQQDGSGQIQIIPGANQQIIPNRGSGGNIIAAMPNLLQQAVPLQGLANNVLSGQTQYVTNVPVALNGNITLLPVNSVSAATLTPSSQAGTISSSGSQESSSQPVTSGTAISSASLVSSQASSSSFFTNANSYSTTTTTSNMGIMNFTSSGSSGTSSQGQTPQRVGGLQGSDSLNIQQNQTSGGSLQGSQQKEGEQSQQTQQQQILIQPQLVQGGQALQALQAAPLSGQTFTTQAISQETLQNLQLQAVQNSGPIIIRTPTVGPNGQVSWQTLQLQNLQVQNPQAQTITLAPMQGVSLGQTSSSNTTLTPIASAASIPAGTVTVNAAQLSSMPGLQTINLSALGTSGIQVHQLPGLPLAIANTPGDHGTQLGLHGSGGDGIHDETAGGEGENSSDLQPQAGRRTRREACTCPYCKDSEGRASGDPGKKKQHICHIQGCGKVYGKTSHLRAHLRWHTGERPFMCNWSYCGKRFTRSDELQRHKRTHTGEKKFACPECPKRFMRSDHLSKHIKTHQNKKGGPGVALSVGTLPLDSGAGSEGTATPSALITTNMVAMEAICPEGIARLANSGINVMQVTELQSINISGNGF

Results are given in words; binding and its absence hold for the method and conditions named. In cells and extracts the contact can be indirect. Some binding calls cover weakened binding; strength is not graded here. For some of these results: Tags and fused reporters may be left off the sequences shown.

In assay [1] the target is Klf3-venus-173 (Krüppel-like factor 3 fused to a Venus fragment) (UniProt Q60980). Nature of the assay: split reporter; bimolecular fluorescence complementation: venus-173 and venus-174 fusions cotransfected into 3T3 cells, read with an upright fluorescence microscope.
Assay [2] has as its target Sp1-venus-173 (trans-acting transcription factor 1 fused to a Venus fragment) (UniProt O89090). Described as above.
The target of assay [3] is KLF3 expressed from pCMV-Klf3 (UniProt Q60980). Nature of the assay: co-IP; 3T3 cells transfected with vectors; IP lysis buffer; immunoprecipitation with an anti-SP1 or anti-KLF3 antibody overnight, Protein A/G beads for 4 hours, 3 PBS washes; immunoblot for CBX4, SP1 and KLF3.
For assay [4], the target named is SP1 expressed from pCMV-Sp1 (UniProt O89090). The description is as above.

B1: Cbx4-venus-174 (chromobox protein 4 fused to a Venus fragment) (protein, UniProt O55187 1-551)
chain: MELPAVGEHVFAVESIEKKRIRKGRVEYLVKWRGWSPKYNTWEPEENILDPRLLIAFQNRERQEQLMGYRKRGPKPKPLVVQVPTFARRSNVLTGLQDSSADNRAKLELGTQGKGQGHQYELNSKKHHQYQPHSKERSGKPPPPGKSGKYYYQLNSKKHHPYQPDPKMYDLQYQGGHKEAPSPTCPDLGTKSHPPDKWAHGAAAKGYLGAVKPLGGGAGAPGKGSEKGPPNGMTPAPKEAVTGNGIGGKMKIVKNKNKNGRIVIVMSKYMENGMQAVKIKSGEAAEGEARSPSHKKRAAEERHPQGDRTFKKAAGASEEKKAEVPCKRREEEALVSGDAQPQDLGSRKLSPTKEAFGEQPLQLTTKPDLLAWDPARSSHPPAHHHHHHHHHHHHHTVGLNLSHARKRCLSETHGEREPCKKRLTARSISTPTCLGGSPVSEHPANVSPTAASLPQPEVILLDSDLDEPIDLRCVKMRSDAGEPPSTLQVKPEAPAVAAVVAPAPASEKPPAEAQEEPVEPLSEFKPFFGNIIITDVTANCLTVTFKEYVTV
Turning to B1, the binding result in assay [1] and in assay [2] was “binds” in each case.

B2: CBX4 expressed from Pcaggs-Cbx4 (protein, UniProt O55187 1-551)
chain: MELPAVGEHVFAVESIEKKRIRKGRVEYLVKWRGWSPKYNTWEPEENILDPRLLIAFQNRERQEQLMGYRKRGPKPKPLVVQVPTFARRSNVLTGLQDSSADNRAKLELGTQGKGQGHQYELNSKKHHQYQPHSKERSGKPPPPGKSGKYYYQLNSKKHHPYQPDPKMYDLQYQGGHKEAPSPTCPDLGTKSHPPDKWAHGAAAKGYLGAVKPLGGGAGAPGKGSEKGPPNGMTPAPKEAVTGNGIGGKMKIVKNKNKNGRIVIVMSKYMENGMQAVKIKSGEAAEGEARSPSHKKRAAEERHPQGDRTFKKAAGASEEKKAEVPCKRREEEALVSGDAQPQDLGSRKLSPTKEAFGEQPLQLTTKPDLLAWDPARSSHPPAHHHHHHHHHHHHHTVGLNLSHARKRCLSETHGEREPCKKRLTARSISTPTCLGGSPVSEHPANVSPTAASLPQPEVILLDSDLDEPIDLRCVKMRSDAGEPPSTLQVKPEAPAVAAVVAPAPASEKPPAEAQEEPVEPLSEFKPFFGNIIITDVTANCLTVTFKEYVTV
In the case of B2, the binding entry in assay [3] and in assay [4] was “binds” throughout.
